Strings that start with PEPTIDE1 are HELM notation: dots part the residues, brackets hold end groups and non-standard residues.
Columns and labels:
[1] = general procedure: Fmoc solid-phase peptide synthesis; PL-PEGA resin (Polymer Labs) with HMPA handle; HCTU/DIPEA; conditions: whole synthesis, scale of the general procedure 0.2 mmol
[2] = general procedure: Fmoc solid-phase peptide synthesis; HMPA-PEGA resin; HCTU/DIPEA; conditions: whole synthesis, overall, scale of the general procedure 0.2 mmol

| Substance | difficulty met [1] | isolated yield [2] |
| --- | --- | --- |
| PEPTIDE1{H.[NH-NH-CH(CH3)-CO].E.G.T.F.T.S.D.V.S.S.Y.L.E.G.Q.A.A.K.E.F.I.A.W.L.V.K.G.R.G}$$$$V2.0 | Fmoc release of the resin showed a failed coupling | – |
| PEPTIDE1{[CO-L-Ala-L-His-NH2].E.G.T.F.T.S.D.V.S.S.Y.L.E.G.Q.A.A.K.E.F.I.A.W.L.V.K.G.R.G}$$$$V2.0 | – | about 10% overall yield |

Reference: patent publication EP1943275B1 (Activotec SPP Limited, priority 2005, dated 2010)
